{"source": "paper PMC12007089", "about": "“Applying Isothermal Titration Calorimetry and Saturation Transfer Difference-NMR to Study the Mode of Interaction of Flavan-3-ols with α-Amylase to Understand Their Impact on Starch Hydrolysis” (Journal of Agricultural and Food Chemistry, 2025)", "key": {"[1]": {"assay": "Heat generation from dilution and mixing (ITC, ligand into buffer)", "conditions": "4 mM flavan-3-ol into buffer, 298 K, n = 2"}, "[2]": {"assay": "Rotamer ratios by NMR", "assay_type": "physicochemical"}, "[3]": {"design": "method as in PMID 16791908", "conditions": "cited from earlier work"}, "[4]": {"conditions": "aqueous methanol (1:1), 50% methanol"}}, "note": "Read-outs that look alike come from different tables or passages of the source."}
{"compound": "Oc1cc(O)c2c(c1)O[C@H](c1ccc(O)c(O)c1)[C@@H](O)C2", "note": "[CAT, (+)-Catechin]", "values": [{"measurement": "heat area (heat development)", "setting": "[1]", "value": "8,08±0,89 µJ"}, {"measurement": "max. heat rate (intensity of the peak)", "setting": "[1]", "value": "0,56±0,03 µJ/s"}]}
{"compound": "Oc1cc(O)c2c(c1)O[C@H](c1ccc(O)c(O)c1)[C@H](O)C2", "note": "[EC, (−)-Epicatechin]", "values": [{"measurement": "heat area (heat development)", "setting": "[1]", "value": "2,03±0,14 µJ"}, {"measurement": "max. heat rate (intensity of the peak)", "setting": "[1]", "value": "0,10±0,01 µJ/s"}]}
{"compound": "Oc1cc(O)c2c(c1)O[C@H](c1ccc(O)c(O)c1)[C@H](O)[C@H]2c1c(O)cc(O)c2c1O[C@H](c1ccc(O)c(O)c1)[C@@H](O)C2", "note": "[PC B1, procyanidin B1]", "values": [{"measurement": "heat area (heat development)", "setting": "[1]", "value": "3,10±0,29 µJ"}, {"measurement": "max. heat rate (intensity of the peak)", "setting": "[1]", "value": "0,19±0,01 µJ/s"}, {"measurement": "proportion of the minor rotamer", "setting": "[2]; [4]", "value": 33, "unit": "%"}, {"measurement": "proportion of the minor rotamer", "setting": "[2]; phosphate buffer", "value": "only traces"}, {"measurement": "proportion of the minor extended rotamer", "setting": "[3]; hydro-alcoholic media", "value": 8, "unit": "%"}, {"measurement": "proportion of the minor extended rotamer", "setting": "[3]; water / aqueous media", "value": 5, "unit": "%"}]}
{"compound": "Oc1cc(O)c2c(c1)O[C@H](c1ccc(O)c(O)c1)[C@H](O)[C@H]2c1c(O)cc(O)c2c1O[C@H](c1ccc(O)c(O)c1)[C@H](O)C2", "note": "[PC B2, procyanidin B2]", "values": [{"measurement": "heat area (heat development)", "setting": "[1]", "value": "2,19±0,53 µJ"}, {"measurement": "max. heat rate (intensity of the peak)", "setting": "[1]", "value": "0,11±0,01 µJ/s"}, {"measurement": "proportion of the minor rotamer", "setting": "[2]; [4]", "value": 55, "unit": "%"}, {"measurement": "proportion of the minor rotamer", "setting": "[2]; phosphate buffer", "value": 25, "unit": "%"}, {"measurement": "proportion of the minor extended rotamer", "setting": "[3]; hydro-alcoholic media", "value": 47, "unit": "%"}, {"measurement": "proportion of the minor extended rotamer", "setting": "[3]; water / aqueous media", "value": 45, "unit": "%"}]}
